Data taken from paper PMC10250293.
No constants are given. Whether binding was seen depends on the method and setting. In cells and extracts the contact can be indirect. Some results given as binding are weak or reduced against the parent protein; the word gives no strength.

Amino acid sequences for entries named in this document (tags omitted).
UniProt Q00987: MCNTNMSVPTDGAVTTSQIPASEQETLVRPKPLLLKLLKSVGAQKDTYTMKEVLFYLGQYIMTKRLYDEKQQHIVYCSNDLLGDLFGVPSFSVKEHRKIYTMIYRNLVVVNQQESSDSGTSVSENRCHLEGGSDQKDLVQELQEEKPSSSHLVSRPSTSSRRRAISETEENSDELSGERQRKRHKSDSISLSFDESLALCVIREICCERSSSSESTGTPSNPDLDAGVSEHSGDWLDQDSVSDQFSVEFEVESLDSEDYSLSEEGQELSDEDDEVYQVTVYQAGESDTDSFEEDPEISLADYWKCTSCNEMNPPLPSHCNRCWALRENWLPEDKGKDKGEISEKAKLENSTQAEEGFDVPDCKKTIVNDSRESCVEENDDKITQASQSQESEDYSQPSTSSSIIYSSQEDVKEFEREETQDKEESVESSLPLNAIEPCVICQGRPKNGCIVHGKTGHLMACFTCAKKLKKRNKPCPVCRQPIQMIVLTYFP

Target: T1, human males absent on the first (hMOF) (human) (UniProt Q9H7Z6)
T1 sequence: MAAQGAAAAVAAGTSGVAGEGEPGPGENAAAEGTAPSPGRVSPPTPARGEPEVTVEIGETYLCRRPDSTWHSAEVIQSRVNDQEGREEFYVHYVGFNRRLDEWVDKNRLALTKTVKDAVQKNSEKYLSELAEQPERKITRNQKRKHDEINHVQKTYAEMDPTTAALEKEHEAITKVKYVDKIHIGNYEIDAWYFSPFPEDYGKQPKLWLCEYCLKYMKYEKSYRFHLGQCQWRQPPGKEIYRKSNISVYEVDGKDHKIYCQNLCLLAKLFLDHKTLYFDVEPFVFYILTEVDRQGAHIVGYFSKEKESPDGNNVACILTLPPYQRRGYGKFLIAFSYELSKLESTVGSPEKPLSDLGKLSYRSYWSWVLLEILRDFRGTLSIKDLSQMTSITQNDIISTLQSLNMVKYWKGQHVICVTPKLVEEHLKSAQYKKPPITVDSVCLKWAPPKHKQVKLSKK
Experiment: co-IP; total protein of OVCAR3 cells; primary antibody (anti-MDM2 or anti-hMOF) added to the lysate overnight at 4 °C, Protein A/G magnetic beads 2 h at 4 °C, 5 washes in lysis buffer, western blot; done in both directions

Mouse double minute 2 homolog (MDM2) (from UniProt Q00987 1-491) (enzyme)
binding: binds
